Laboratory results as given in article PMC12177781, “Chalcogen Derivatives for the Treatment of African Trypanosomiasis: Biological Evaluation of Thio- and Seleno-Semicarbazones and Their Azole Derivatives” (ACS Omega, 2025).

What was measured:
[1] = system: HepG2 cells; assay: HepG2 cytotoxicity, CellTiter-Glo, 48 h; conditions: selectivity index CC50 HepG2/EC50
[2] = system: HEK293 cells; assay: HEK293 cytotoxicity, CellTiter-Glo, 48 h; conditions: selectivity index CC50 HEK293/EC50

For `C/C(=N\Nc1nc(C)c[se]1)c1ccc(C)cc1` [SeC1], the SIHepG2 [1] was 1 and the SIHEK293 [2] was 1.

Compound `C/C(=N\Nc1nc(C)c[se]1)c1ccc(Br)cc1` [SeC3] has an SIHepG2 [1] of 1 and an SIHEK293 [2] of 1.

`C/C(=N\Nc1nc(C)c[se]1)c1cccc([N+](=O)[O-])c1` [SeC5] gave an SIHepG2 [1] of 1 and an SIHEK293 [2] of 1.

Compound `C/C(=N\NC(N)=[Se])c1ccc(C)cc1` [SeO1] has an SIHepG2 [1] of 4 and an SIHEK293 [2] of 4.

With `C/C(=N\NC(N)=[Se])c1ccc(Br)cc1` [SeO3] the SIHepG2 [1] was 6, the SIHepG2 ([1]; listed as Se O3) was “approximately 6” and the SIHEK293 [2] was 6. The SIHEK293 ([2]; listed as Se O3) was “approximately 6”.

Compound `C/C(=N\NC(N)=[Se])c1cccc([N+](=O)[O-])c1` [SeO5] has an SIHepG2 [1] of 1 and an SIHEK293 [2] of 0.

Compound `C/C(=N\NC(N)=[Se])C12CC3CC(CC(C3)C1)C2` [SeO11] has an SIHepG2 [1] of 1 and an SIHEK293 [2] of 2.
